# In the supplement of paper PMC8728848:
# The other results are listed elsewhere or left out.
# B1: PX14343C-bfa-541-26-541 (Bacteroides fragilis) (protein)
# chain: KAPLDEIADDSFWSDETLVKYYVNDLYSEISVDGLQLQENRSDNSVSAQRDKYRASWFKFNYDMVSASDPQDDDVWEDYYVKVRKCNRFFERIGTSTIEESEKSRLTGEVHFLRAMFYFEMVKRYGGVILLDKVLTMEDNWEIPRSSEKECYDFILEDLKKATEMLPASYGSREKGRATKGAAYALKSRVELYDKRYEDVIKSCAEVYKLGYELVDGTTPEKYRSIWWTTNKDNKEIIFDVQYKSPDVYNNMMVCNMVTYINDKYGDRGWGGLGPTQELIDAFEMADGTPATQYSQAPADQVFDINTCGIYEGREPRFYANIVFHGSQIFFNADKGAVTVDRYLMDTPDKGDGSLTGYNVWKWIDYDNYNYPYAGAGSPDFSTNWIILRYAEIYLNDAEARLETGDVEGARKAVNMIRQRVGLPDLTESDPEKLRELIRKERRIEFAFEEQRFYDVRRWKIGPETQTTLHGVRFVSPTEFKVTKTDIRTWNDRLYLTPVPHDEIVRSSVLKQNLGY
# Experiments:
# Test in all cases: glycan array binding signal (z-score within array); higher = stronger binding
# Settings in all cases: glycan notation: IUPAC condensed, linker removed
# [1] = target: Fuc(a1-2)Gal6S(b1-3)GlcNAc6S
# Procedure, shortened: (§1)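 Glycan array data were curated from 3228 arrays in the Consortium for Functional Glycomics database and kept only where the protein sequence was available. Glycan names were converted to IUPAC-condensed notation, and columns mapping to the same glycan were averaged. The binding signal is a within-array Z-score, averaged across arrays of the same protein sequence at different concentrations or buffers and across linkers. Negative Z-scores can be read as non-binding.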
# [2] = target: Fuc(a1-2)Gal6S(b1-4)Glc
# Procedure, shortened: as §1
# [3] = target: Fuc(a1-2)Gal6S(b1-4)Glc6S
# Procedure, shortened: as §1
# [4] = target: Fuc(a1-2)[Gal(a1-3)]Gal
# Procedure, shortened: as §1
# [5] = target: Fuc(a1-2)[Gal(a1-3)]Gal(b1-3)GalNAc
# Procedure, shortened: as §1
# [6] = target: Fuc(a1-2)[Gal(a1-3)]Gal(b1-3)GalNAc(b1-3)Gal(a1-4)Gal(b1-4)Glc
# Procedure, shortened: as §1
# [7] = target: Fuc(a1-2)[Gal(a1-3)]Gal(b1-3)GlcNAc
# Procedure, shortened: as §1
# [8] = target: Fuc(a1-2)[Gal(a1-3)]Gal(b1-3)GlcNAc(b1-2)Man(a1-3)[Fuc(a1-2)[Gal(a1-3)]Gal(b1-3)GlcNAc(b1-2)Man(a1-6)]Man(b1-4)GlcNAc(b1-4)GlcNAc
# Procedure, shortened: as §1
# [9] = target: Fuc(a1-2)[Gal(a1-3)]Gal(b1-3)GlcNAc(b1-2)Man(a1-3)[Fuc(a1-2)[Gal(a1-3)]Gal(b1-3)GlcNAc(b1-2)Man(a1-6)]Man(b1-4)GlcNAc(b1-4)[Fuc(a1-6)]GlcNAc
# Procedure, shortened: as §1
# [10] = target: Fuc(a1-2)[Gal(a1-3)]Gal(b1-3)GlcNAc(b1-3)GalNAc
# Procedure, shortened: as §1
# [11] = target: Fuc(a1-2)[Gal(a1-3)]Gal(b1-3)GlcNAc(b1-6)GalNAc
# Procedure, shortened: as §1
# [12] = target: Fuc(a1-2)[Gal(a1-3)]Gal(b1-4)Glc
# Procedure, shortened: as §1
# [13] = target: Fuc(a1-2)[Gal(a1-3)]Gal(b1-4)GlcNAc
# Procedure, shortened: as §1
# [14] = target: Fuc(a1-2)[Gal(a1-3)]Gal(b1-4)GlcNAc(b1-2)Man
# Procedure, shortened: as §1
# [15] = target: Fuc(a1-2)[Gal(a1-3)]Gal(b1-4)GlcNAc(b1-2)Man(a1-3)[Fuc(a1-2)[Gal(a1-3)]Gal(b1-4)GlcNAc(b1-2)Man(a1-6)]Man(b1-4)GlcNAc(b1-4)GlcNAc
# Procedure, shortened: as §1
# [16] = target: Fuc(a1-2)[Gal(a1-3)]Gal(b1-4)GlcNAc(b1-2)Man(a1-3)[Fuc(a1-2)[Gal(a1-3)]Gal(b1-4)GlcNAc(b1-2)Man(a1-6)]Man(b1-4)GlcNAc(b1-4)[Fuc(a1-6)]GlcNAc
# Procedure, shortened: as §1
# [17] = target: Fuc(a1-2)[Gal(a1-3)]Gal(b1-4)GlcNAc(b1-3)GalNAc
# Procedure, shortened: as §1
# [18] = target: Fuc(a1-2)[Gal(a1-3)]Gal(b1-4)GlcNAc(b1-3)[Fuc(a1-2)[Gal(a1-3)]Gal(b1-4)GlcNAc(b1-6)]GalNAc
# Procedure, shortened: as §1
# [19] = target: Fuc(a1-2)[Gal(a1-3)]Gal(b1-4)GlcNAc(b1-6)GalNAc
# Procedure, shortened: as §1
# [20] = target: Fuc(a1-2)[Gal(a1-3)]Gal(b1-4)[Fuc(a1-3)]Glc
# Procedure, shortened: as §1
# [21] = target: Fuc(a1-2)[Gal(a1-3)]Gal(b1-4)[Fuc(a1-3)]GlcNAc
# Procedure, shortened: as §1
# [22] = target: Fuc(a1-2)[Gal(a1-3)]Gal(b1-4)[Fuc(a1-3)]GlcNAc(b1-3)GalNAc
# Procedure, shortened: as §1
# [23] = target: Fuc(a1-2)[Gal(a1-4)]Gal(b1-4)GlcNAc
# Procedure, shortened: as §1
# [24] = target: Fuc(a1-2)[GalNAc(a1-3)]Gal
# Procedure, shortened: as §1
# [25] = target: Fuc(a1-2)[GalNAc(a1-3)]Gal(b1-3)GalNAc(a1-3)[Fuc(a1-2)]Gal(b1-4)GlcNAc
# Procedure, shortened: as §1
# [26] = target: Fuc(a1-2)[GalNAc(a1-3)]Gal(b1-3)GalNAc(b1-3)Gal(a1-4)Gal(b1-4)Glc
# Procedure, shortened: as §1
# [27] = target: Fuc(a1-2)[GalNAc(a1-3)]Gal(b1-3)GlcNAc
# Procedure, shortened: as §1
# [28] = target: Fuc(a1-2)[GalNAc(a1-3)]Gal(b1-3)GlcNAc(b1-2)Man(a1-3)[Fuc(a1-2)[GalNAc(a1-3)]Gal(b1-3)GlcNAc(b1-2)Man(a1-6)]Man(b1-4)GlcNAc(b1-4)GlcNAc
# Procedure, shortened: as §1
# [29] = target: Fuc(a1-2)[GalNAc(a1-3)]Gal(b1-3)GlcNAc(b1-2)Man(a1-3)[Fuc(a1-2)[GalNAc(a1-3)]Gal(b1-3)GlcNAc(b1-2)Man(a1-6)]Man(b1-4)GlcNAc(b1-4)[Fuc(a1-6)]GlcNAc
# Procedure, shortened: as §1
# [30] = target: Fuc(a1-2)[GalNAc(a1-3)]Gal(b1-3)GlcNAc(b1-3)GalNAc
# Procedure, shortened: as §1
# [31] = target: Fuc(a1-2)[GalNAc(a1-3)]Gal(b1-3)GlcNAc(b1-6)GalNAc
# Procedure, shortened: as §1
# [32] = target: Fuc(a1-2)[GalNAc(a1-3)]Gal(b1-4)Glc
# Procedure, shortened: as §1
# [33] = target: Fuc(a1-2)[GalNAc(a1-3)]Gal(b1-4)GlcNAc
# Procedure, shortened: as §1
# [34] = target: Fuc(a1-2)[GalNAc(a1-3)]Gal(b1-4)GlcNAc(b1-2)Man
# Procedure, shortened: as §1
# [35] = target: Fuc(a1-2)[GalNAc(a1-3)]Gal(b1-4)GlcNAc(b1-2)Man(a1-3)[Fuc(a1-2)[GalNAc(a1-3)]Gal(b1-4)GlcNAc(b1-2)Man(a1-6)]Man(b1-4)GlcNAc(b1-4)GlcNAc
# Procedure, shortened: as §1
# [36] = target: Fuc(a1-2)[GalNAc(a1-3)]Gal(b1-4)GlcNAc(b1-2)Man(a1-3)[Fuc(a1-2)[GalNAc(a1-3)]Gal(b1-4)GlcNAc(b1-2)Man(a1-6)]Man(b1-4)GlcNAc(b1-4)[Fuc(a1-6)]GlcNAc
# Procedure, shortened: as §1
# [37] = target: Fuc(a1-2)[GalNAc(a1-3)]Gal(b1-4)GlcNAc(b1-3)Gal(b1-4)GlcNAc
# Procedure, shortened: as §1
# [38] = target: Fuc(a1-2)[GalNAc(a1-3)]Gal(b1-4)GlcNAc(b1-3)Gal(b1-4)GlcNAc(b1-3)Gal(b1-4)GlcNAc
# Procedure, shortened: as §1
# [39] = target: Fuc(a1-2)[GalNAc(a1-3)]Gal(b1-4)GlcNAc(b1-3)GalNAc
# Procedure, shortened: as §1
# [40] = target: Fuc(a1-2)[GalNAc(a1-3)]Gal(b1-4)GlcNAc(b1-3)[Fuc(a1-2)[GalNAc(a1-3)]Gal(b1-4)GlcNAc(b1-6)]GalNAc
# Procedure, shortened: as §1
# [41] = target: Fuc(a1-2)[GalNAc(a1-3)]Gal(b1-4)GlcNAc(b1-6)GalNAc
# Procedure, shortened: as §1
# [42] = target: Fuc(a1-2)[GalNAc(a1-3)]Gal(b1-4)[Fuc(a1-3)]GlcNAc
# Procedure, shortened: as §1
# [43] = target: Fuc(a1-2)[GalNAc(a1-3)]Gal(b1-4)[Fuc(a1-3)]GlcNAc(b1-3)GalNAc
# Procedure, shortened: as §1
# [44] = target: Fuc(a1-2)[GalNAc(a1-4)]Gal(b1-4)GlcNAc
# Procedure, shortened: as §1
# [45] = target: Fuc(a1-2)[GalNAc(b1-3)]Gal
# Procedure, shortened: as §1
binder,measurement,setting,value
B1,glycan array binding signal (z-score),[1],0.425
same,glycan array binding signal (z-score),[2],3.12
same,glycan array binding signal (z-score),[3],-0.26
same,glycan array binding signal (z-score),[4],0.21
same,glycan array binding signal (z-score),[5],-0.505
same,glycan array binding signal (z-score),[6],-0.107
same,glycan array binding signal (z-score),[7],-0.558
same,glycan array binding signal (z-score),[8],2.35
same,glycan array binding signal (z-score),[9],0.698
same,glycan array binding signal (z-score),[10],0.719
same,glycan array binding signal (z-score),[11],2.42
same,glycan array binding signal (z-score),[12],0.209
same,glycan array binding signal (z-score),[13],-0.674
same,glycan array binding signal (z-score),[14],-0.447
same,glycan array binding signal (z-score),[15],0.192
same,glycan array binding signal (z-score),[16],0.027
same,glycan array binding signal (z-score),[17],-0.339
same,glycan array binding signal (z-score),[18],-0.154
same,glycan array binding signal (z-score),[19],0.018
same,glycan array binding signal (z-score),[20],-0.83
same,glycan array binding signal (z-score),[21],-0.327
same,glycan array binding signal (z-score),[22],0.311
same,glycan array binding signal (z-score),[23],0.174
same,glycan array binding signal (z-score),[24],-0.661
same,glycan array binding signal (z-score),[25],0.153
same,glycan array binding signal (z-score),[26],0.049
same,glycan array binding signal (z-score),[27],1.41
same,glycan array binding signal (z-score),[28],0.09
same,glycan array binding signal (z-score),[29],0.839
same,glycan array binding signal (z-score),[30],-0.56
same,glycan array binding signal (z-score),[31],0.051
same,glycan array binding signal (z-score),[32],0.571
same,glycan array binding signal (z-score),[33],-0.605
same,glycan array binding signal (z-score),[34],-0.738
same,glycan array binding signal (z-score),[35],2.15
same,glycan array binding signal (z-score),[36],0.339
same,glycan array binding signal (z-score),[37],0.379
same,glycan array binding signal (z-score),[38],0.368
same,glycan array binding signal (z-score),[39],0.855
same,glycan array binding signal (z-score),[40],-0.603
same,glycan array binding signal (z-score),[41],0.182
same,glycan array binding signal (z-score),[42],1.23
same,glycan array binding signal (z-score),[43],0.409
same,glycan array binding signal (z-score),[44],0.255
same,glycan array binding signal (z-score),[45],-1.08

# Reprinted from the listing for reference:
binder,measurement,setting,value
B1,glycan array binding signal (z-score),[25],0.153
same,glycan array binding signal (z-score),[26],0.049
